Measurements published in paper PMC9389594.
Results are given in words; binding and its absence hold for the method and conditions named. For some of these results: In cells and extracts the contact can be indirect. Some binding calls cover weakened binding; strength is not graded here. For some of these results: Sequences can lack the tags named with a protein.

T1: FKBP4 (human (endogenous in HCT116)) (UniProt Q02790)
T1 sequence: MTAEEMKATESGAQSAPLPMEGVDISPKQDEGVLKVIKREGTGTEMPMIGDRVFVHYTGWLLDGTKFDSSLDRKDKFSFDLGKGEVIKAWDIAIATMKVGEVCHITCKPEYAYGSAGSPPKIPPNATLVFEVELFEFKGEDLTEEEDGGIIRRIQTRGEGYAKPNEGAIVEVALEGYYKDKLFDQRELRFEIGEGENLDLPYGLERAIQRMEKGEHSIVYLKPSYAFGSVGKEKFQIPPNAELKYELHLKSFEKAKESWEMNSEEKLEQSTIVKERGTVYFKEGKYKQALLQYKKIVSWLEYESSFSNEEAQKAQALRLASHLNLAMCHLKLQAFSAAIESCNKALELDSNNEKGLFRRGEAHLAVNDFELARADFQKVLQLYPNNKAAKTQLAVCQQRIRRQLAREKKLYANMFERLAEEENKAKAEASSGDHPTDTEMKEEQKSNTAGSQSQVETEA

T2: recombinant GST-tagged FKBP4 (UniProt Q02790)
T2 sequence: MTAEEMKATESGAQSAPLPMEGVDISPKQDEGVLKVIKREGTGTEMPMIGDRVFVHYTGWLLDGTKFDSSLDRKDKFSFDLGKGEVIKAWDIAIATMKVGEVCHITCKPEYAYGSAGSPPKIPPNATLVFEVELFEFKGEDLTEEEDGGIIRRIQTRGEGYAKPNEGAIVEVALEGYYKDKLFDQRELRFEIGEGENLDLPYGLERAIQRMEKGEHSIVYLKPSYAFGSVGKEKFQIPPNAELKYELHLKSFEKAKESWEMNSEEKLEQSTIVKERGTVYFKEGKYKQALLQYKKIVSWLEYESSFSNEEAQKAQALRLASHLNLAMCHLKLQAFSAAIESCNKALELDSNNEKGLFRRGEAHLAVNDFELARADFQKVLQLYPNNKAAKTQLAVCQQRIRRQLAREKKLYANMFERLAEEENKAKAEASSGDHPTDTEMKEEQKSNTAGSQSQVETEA


Tests used:
[1] = molecular target: T1, FKBP4 (human (endogenous in HCT116)); test: co-IP; immunoprecipitation of endogenous FKBP4 with anti-FKBP4 antibody from lysate of mitochondria of HCT116 cells; co-IP buffer 50 mM Tris pH 7.4, 150 mM NaCl, 2 mM EDTA, 1% NP-40; overnight 4°C; Protein-A/G-Sepharose
[2] = molecular target: T2, recombinant GST-tagged FKBP4; test: pull-down; GST pull-down with recombinant GST-tagged FKBP4 and 6xHis-tagged COA6; both purified

| Binder | binding [1] | binding [2] |
| --- | --- | --- |
| COA6 (protein, UniProt Q5JTJ3 1-125) MGPGGPLLSPSRGFLLCKTGWHSNRLLGDCGPHTPVSTALSFIAVGMAAPSMKERQVCWGARDEYWKCLDENLEDASQCKKLRSSFESSCPQQWIKYFDKRRDYLKFKEKFEAGQFEPSETTAKS | binds |  |
| SCO1 (protein, UniProt O75880 68-301) STARPPPPWSQKGPGDSTRPSKPGPVSWKSLAITFAIGGALLAGMKHVKKEKAEKLEKERQRHIGKPLLGGPFSLTTHTGERKTDKDYLGQWLLIYFGFTHCPDVCPEELEKMIQVVDEIDSITTLPDLTPLFISIDPERDTKEAIANYVKEFSPKLVGLTGTREEVDQVARAYRVYYSPGPKDEDEDYIVDHTIIMYLIGPDGEFLDYFGQNKRKGEIAASIATHMRPYRKKS | binds |  |
| SCO2 (protein, UniProt O43819 42-266) GPAETGGQGQPQGPGLRTRLLITGLFGAGLGGAWLALRAEKERLQQQKRTEALRQAAVGQGDFHLLDHRGRARCKADFRGQWVLMYFGFTHCPDICPDELEKLVQVVRQLEAEPGLPPVQPVFITVDPERDDVEAMARYVQDFHPRLLGLTGSTKQVAQASHSYRVYYNAGPKDEDQDYIVDHSIAIYLLNPDGLFTDYYGRSRSAEQISDSVRRHMAAFRSVLS | binds |  |
| recombinant 6xHis-tagged COA6 (protein, UniProt Q5JTJ3 1-125) MGPGGPLLSPSRGFLLCKTGWHSNRLLGDCGPHTPVSTALSFIAVGMAAPSMKERQVCWGARDEYWKCLDENLEDASQCKKLRSSFESSCPQQWIKYFDKRRDYLKFKEKFEAGQFEPSETTAKS |  | binds |
